# Experimental data as given in PubChem BioAssay AID540256 (National Center for Advancing Translational Sciences (NCATS), 2011).
# In all, about 300,000 compounds went through this assay and about 3,700 (1.2%) were called active. Inconclusive results, whose numbers are uncertain, are shown with a selection of clear calls. Calls come from the whole dose curve; tested in HEK293 cells. A potency beside an inconclusive call is a rough fit, not a confirmed value.
# Test: qHTS for Inhibitors of binding or entry into cells for Lassa Virus; note: nearly all actives have a fitted effect of over 50% in size
# Conditions: Lassa virus pseudotype entry inhibition, cell reporter; activity change, negative = inhibition: at 37.9 µM (top of the series) unless noted
# % is set by controls: 0 for no effect and ±100 for the full control effect; potency is the fitted concentration of half-maximal effect.
Structure (SMILES),Potency,"activity change, negative = inhibition"
COc1ccc(C2=Nc3ccc(C)cc3NC(c3ccc(Cl)cc3)=N2)cc1,"inconclusive: 17.8 µM [activator, single point]",
O=C1c2[nH]nc(-c3ccccc3O)c2C(c2cccc(Cl)c2)N1Cc1ccco1 (stereo not given),"inconclusive: 1.83 µM [inhibitor, partial curve, poor fit]",
CCNC(=O)CSc1nnc(CN2CCCCCC2=O)n1-c1ccccn1,,inactive: -2.88%
O=C1c2cccc3cc([N+](=O)[O-])cc(c23)C(=O)N1CC1CCCO1 (stereo not given),,inactive: -3.68%
O=C(CSc1nnc(-c2ccncc2)o1)N1CCCC1,"inconclusive: 4.47 µM [inhibitor, single point]",
c1ccc(SCc2cn3cccnc3n2)nc1,"inconclusive: 10 µM [activator, partial curve, poor fit]",
Cc1ccc(OCCn2nnc3sc4c(c3c2=O)CCC(C(C)(C)C)C4)cc1 (stereo not given),,inactive: 21.7% [at 46.1 µM]
COc1ccc(C2=Nc3ccc(Br)cc3C(c3ccccc3)N2CC(=O)NN)cc1 (stereo not given),"inconclusive: 1.64 µM [inhibitor, partial curve, poor fit]",
Cc1cccc(/C=N/NC(=O)c2ccccc2OCc2cccc(Br)c2)n1,"inconclusive: 35.5 µM [inhibitor, single point]",
Cn1c(-c2ccccc2)c(C(=O)CC#N)c2ccccc21,,inactive: -12.7% [at 46.1 µM]
CCN(CC)c1ccc(/C=N/NC(=O)c2nnn(-c3nonc3N)c2C(C)C)c(O)c1,"inconclusive: 3.16 µM [inhibitor, full curve, poor fit]",
Cc1ccc2nc(N(CCCN(C)C)C(=O)c3ccc(Br)s3)sc2c1,"inconclusive: 14.1 µM [inhibitor, single point]",
CCOC(=O)c1oc2ccccc2c1CSc1nnnn1-c1ccc(C)cc1,"inconclusive: 4.11 µM [inhibitor, full curve, poor fit]",
O=C(O)/C=C/c1ccc2ccccc2n1,,inactive: -2.99%
C=CCNC(=O)C1CC(=O)N(c2ccc(OCC(=O)Nc3ccc(C)cc3)cc2)C1 (stereo not given),,inactive: 13.3%
NS(=O)(=O)c1cccc(NC(=O)CSc2nn(-c3ccccc3)c(=S)s2)c1,"inconclusive: 32.6 µM [inhibitor, partial curve, poor fit]",
O=c1[nH]c(N/N=C/c2ccc(O)cc2)nc2ccccc12,"inconclusive: 17.8 µM [inhibitor, single point]",
Cc1cc(C(=O)Nc2ccccn2)cs1,"inconclusive: 13 µM [inhibitor, partial curve, poor fit]",
Cc1cc(C=O)c(C)n1C1CCCCC1,,inactive: -11.8%
CCOC(=O)N1CCN(C(=O)CN(c2ccc(C)cc2C)S(=O)(=O)c2ccccc2)CC1,"inconclusive: 39.8 µM [inhibitor, partial curve, poor fit]",
Cc1ccc(C(=O)OCC(=O)NCc2cccs2)cc1,,inactive: 3.03%
O=C1c2ccccc2NC(c2ccccc2)N1/N=C/c1ccccc1 (stereo not given),"inconclusive: 7.94 µM [inhibitor, partial curve, poor fit]",

Structure (SMILES),Potency,"activity change, negative = inhibition"
CSC(SC)=C(C#N)C(=O)c1ccccc1,"inconclusive: 35.5 µM [inhibitor, single point]",
Cc1cc(C)c(/C=C/c2onc(C)c2S(=O)(=O)N2CCC(C(=O)NCc3ccco3)CC2)c(C)c1,,inactive: -15.7% [at 46.1 µM]
CCn1c(-c2ccc3[nH]c(C)c(C)c3c2)n[nH]c1=S,"inconclusive: 6.51 µM [inhibitor, full curve]",
CCC1C(c2ccccc2)N(C)C(c2ccccc2)CC1(O)c1ccccc1 (stereo not given),"inconclusive: 14.1 µM [inhibitor, single point]",
CCc1cc(C(=O)NCC(C)(C)N2CCOCC2)sc1C,"inconclusive: 12.6 µM [activator, partial curve, poor fit]",
O=C1CN(C(=O)CSc2nc3cc(Cl)ccc3c(=O)n2Cc2ccccc2)c2ccccc2N1,"inconclusive: 35.5 µM [inhibitor, single point]",
Cc1ccc(NC(=S)N(CCCN2CCOCC2)Cc2ccco2)cc1Cl,"inconclusive: 25.9 µM [inhibitor, single point]",
CC12CCC(O)CC1=CCC1C2CCC2(C)c3[nH]ncc3CC12 (stereo not given),"inconclusive: 35.5 µM [inhibitor, single point]",
COc1ccccc1N(C(=O)c1ccncc1)c1nc(-c2ccc([N+](=O)[O-])cc2)cs1,"inconclusive: 25.9 µM [inhibitor, single point]",
CCCOc1ccc(C(=O)C(CN2CCOCC2)c2ccccc2)cc1 (stereo not given),"inconclusive: 25.1 µM [inhibitor, single point]",
O=C(CCCCn1c(=O)[nH]c2ccsc2c1=O)N1CCN(c2cccc(Cl)c2)CC1,"inconclusive: 10 µM [inhibitor, partial curve, poor fit]",
COc1ccc(Nc2c([N+](=O)[O-])ccc3c2=NC2(CCCCC2)N=3)cc1,"inconclusive: 6.31 µM [inhibitor, full curve, poor fit]",
CCN(CC)CCCNC(=O)Cn1c(-c2cccs2)cc2cc(Cl)ccc21,"inconclusive: 35.5 µM [inhibitor, single point]",
COC(=O)c1ccc(Sc2nnnn2-c2ccccc2)c([N+](=O)[O-])c1,"inconclusive: 15.8 µM [inhibitor, single point]",
Cc1ccc(NC(=S)c2ccc(N(C)C)cc2)cc1,"inconclusive: 4.47 µM [activator, partial curve, poor fit]",
Cc1cc(N/N=C/c2cccc(Cl)c2)nc(-n2nc(C)cc2C)n1,"inconclusive: 35.5 µM [inhibitor, single point]",
CCOc1ccccc1NC(=O)Cn1nnc2sc3c(c2c1=O)CCC(C(C)(C)C)C3 (stereo not given),,inactive: 24.5% [at 46.1 µM]
CC(=O)c1cccc(Nc2nc(-c3sc(N)nc3C)cs2)c1,"inconclusive: 5.62 µM [activator, full curve, poor fit]",
O=C1N/C(=N/c2ccccn2)SC1Cc1ccccc1 (stereo not given),"inconclusive: 32.6 µM [inhibitor, single point]",
NS(=O)(=O)c1ccc(CCNc2nc3c(-c4cccc(F)c4)nnn3c3ccc(Cl)cc23)cc1,"inconclusive: 1.78 µM [inhibitor, partial curve, poor fit]",
CCOC(=O)Cc1ccc(NCc2ccc(Cl)cc2)cc1,,inactive: -13.4%
COCCCNC(=O)/C(C#N)=C/c1c(N2CCN(c3ccc(OC)cc3)CC2)nc2c(C)cccn2c1=O,"inconclusive: 1.78 µM [inhibitor, single point]",

Structure (SMILES),Potency,"activity change, negative = inhibition"
O=C(Nc1ccccc1)N1CCc2c([nH]c3ccccc23)C1C(F)(F)F (stereo not given),"inconclusive: 22.4 µM [inhibitor, partial curve, poor fit]",
COc1cccc(NC(=O)CN(C)CC(=O)Nc2cccc(C(F)(F)F)c2)c1,"inconclusive: 35.5 µM [inhibitor, partial curve, poor fit]",
O=C(NC(=S)Nc1ccc(Cl)cn1)C(c1ccccc1)c1ccccc1,"inconclusive: 25.1 µM [inhibitor, single point]",
COc1ccc(C2c3c(ncn(CCCO)c3=N)Oc3ccc4ccccc4c32)cc1OC (stereo not given),"inconclusive: 7.94 µM [inhibitor, partial curve, poor fit]",
CN1CCN(CC(=O)N(C)c2nc(-c3ccccc3)cs2)CC1,,inactive: 4.07%
COc1ccc(CN(CC(=O)NC2CCCCC2)C(=O)CCC(=O)Nc2nccs2)cc1,"inconclusive: 2.51 µM [inhibitor, partial curve, poor fit]",
COC(=O)c1cc(NC(=O)CN(c2ccccc2)S(=O)(=O)N(C)C)ccc1Cl,,inactive: -13.1% [at 46.1 µM]
CCN1CCN(C(=O)c2ccc3c(c2)N(Cc2cc(C)ccc2C)C(=O)c2ccccc2S3=O)CC1 (stereo not given),,inactive: -26.1% [at 46.1 µM]
COC(=O)CC1C(=O)NCCN1C(=O)CSc1nnc(Nc2ccc(OC)cc2)s1 (stereo not given),"inconclusive: 23.1 µM [activator, partial curve, poor fit]",
Cc1cc(C)c2nc(NNC(=O)c3cc(-c4cccs4)nc4ccccc34)sc2c1,"inconclusive: 29.1 µM [inhibitor, single point]",
CCOC(=O)c1sc2ccccc2c1OC(=O)c1ccccc1,"inconclusive: 35.5 µM [inhibitor, single point]",
CCOc1ccc(C(=O)NCC(=O)OCC(=O)c2ccc3c(c2)-c2ccccc2C3)cc1,"inconclusive: 16.4 µM [inhibitor, partial curve, poor fit]",
COc1ccc(Cl)cc1NC(=O)COC(=O)CCCC1=NS(=O)(=O)c2ccccc2N1,,inactive: 19.2% [at 46.1 µM]
O=C(c1cccc(N2CCNC2=O)c1)N1CCCC(Nc2cccc(F)c2)C1 (stereo not given),"inconclusive: 35.5 µM [activator, single point]",
Cc1ccc(-n2ncc3c(NCCC4=CCCCC4)ncnc32)cc1C,"inconclusive: 5.62 µM [activator, single point]",
COc1cc(/C=C/C(=O)Nc2ccc(OC)c(S(=O)(=O)N3CCOCC3)c2)ccc1OCC#N,"inconclusive: 5.62 µM [inhibitor, single point]",
CC(=O)C1=C(C)NC(SCC(=O)c2ccc(Cl)cc2)=C(C#N)C1CC(C)C (stereo not given),,inactive: -8.48%
O=C(NC1CCCC1)c1cc(-c2cccs2)on1,"inconclusive: 11.6 µM [inhibitor, single point]",
O=C(c1cc2c(ccc3ccccc32)oc1=O)N1CCCC1,,inactive: 5.95%
COc1cccc(/C(C#N)=C/c2c(-c3ccc(Cl)cc3)nc3c(C)cccn23)c1,"inconclusive: 25.1 µM [inhibitor, single point]",
Cc1oc(-c2ccc(Cl)cc2)nc1Cn1c(=O)cc(-c2ccccc2)c2c(C)nn(C)c21,,inactive: 6.31% [at 46.1 µM]

# Some of the entries above, reformatted:
Structure (SMILES) | Potency | activity change, negative = inhibition
O=C(NC(=S)Nc1ccc(Cl)cn1)C(c1ccccc1)c1ccccc1 | inconclusive: 25.1 µM [inhibitor, single point] | 
COc1ccc(C2c3c(ncn(CCCO)c3=N)Oc3ccc4ccccc4c32)cc1OC (stereo not given) | inconclusive: 7.94 µM [inhibitor, partial curve, poor fit] | 
CN1CCN(CC(=O)N(C)c2nc(-c3ccccc3)cs2)CC1 |  | inactive: 4.07%
COc1ccc(CN(CC(=O)NC2CCCCC2)C(=O)CCC(=O)Nc2nccs2)cc1 | inconclusive: 2.51 µM [inhibitor, partial curve, poor fit] | 
COC(=O)c1cc(NC(=O)CN(c2ccccc2)S(=O)(=O)N(C)C)ccc1Cl |  | inactive: -13.1% [at 46.1 µM]
CCN1CCN(C(=O)c2ccc3c(c2)N(Cc2cc(C)ccc2C)C(=O)c2ccccc2S3=O)CC1 (stereo not given) |  | inactive: -26.1% [at 46.1 µM]
COC(=O)CC1C(=O)NCCN1C(=O)CSc1nnc(Nc2ccc(OC)cc2)s1 (stereo not given) | inconclusive: 23.1 µM [activator, partial curve, poor fit] | 
Cc1cc(C)c2nc(NNC(=O)c3cc(-c4cccs4)nc4ccccc34)sc2c1 | inconclusive: 29.1 µM [inhibitor, single point] | 
CCOC(=O)c1sc2ccccc2c1OC(=O)c1ccccc1 | inconclusive: 35.5 µM [inhibitor, single point] | 
CCOc1ccc(C(=O)NCC(=O)OCC(=O)c2ccc3c(c2)-c2ccccc2C3)cc1 | inconclusive: 16.4 µM [inhibitor, partial curve, poor fit] | 
COc1ccc(Cl)cc1NC(=O)COC(=O)CCCC1=NS(=O)(=O)c2ccccc2N1 |  | inactive: 19.2% [at 46.1 µM]
O=C(c1cccc(N2CCNC2=O)c1)N1CCCC(Nc2cccc(F)c2)C1 (stereo not given) | inconclusive: 35.5 µM [activator, single point] | 
Cc1ccc(-n2ncc3c(NCCC4=CCCCC4)ncnc32)cc1C | inconclusive: 5.62 µM [activator, single point] | 
COc1cc(/C=C/C(=O)Nc2ccc(OC)c(S(=O)(=O)N3CCOCC3)c2)ccc1OCC#N | inconclusive: 5.62 µM [inhibitor, single point] | 
CC(=O)C1=C(C)NC(SCC(=O)c2ccc(Cl)cc2)=C(C#N)C1CC(C)C (stereo not given) |  | inactive: -8.48%
O=C(NC1CCCC1)c1cc(-c2cccs2)on1 | inconclusive: 11.6 µM [inhibitor, single point] | 
O=C(c1cc2c(ccc3ccccc32)oc1=O)N1CCCC1 |  | inactive: 5.95%
COc1cccc(/C(C#N)=C/c2c(-c3ccc(Cl)cc3)nc3c(C)cccn23)c1 | inconclusive: 25.1 µM [inhibitor, single point] | 
Cc1oc(-c2ccc(Cl)cc2)nc1Cn1c(=O)cc(-c2ccccc2)c2c(C)nn(C)c21 |  | inactive: 6.31% [at 46.1 µM]
